Measurements from PubChem BioAssay AID504847 (National Center for Advancing Translational Sciences (NCATS), 2011).
Several values for one entry are separate records, joined by “and”; a condition that tells them apart may be missing. Equal values may be shown once. Screen size: about 400,000 compounds; about 3,700 (0.93%) were called active. The shares of active, inactive and inconclusive entries below differ from those in the screen. Calls follow the shape of the dose curve; as a rule, active = well fitted inhibition curve with a large enough effect; inconclusive = small, poorly fitted or top-dose-only effect, or another doubt; inactive = no such curve, though single readings can be large or run the other way. Where the call is inconclusive, the potency comes from a doubtful curve fit. Some structures have more than one record in an assay (separate samples or runs), and their calls can disagree.

Amino acid sequences for entries named in this document (tags omitted). A change or cut given only in a name is not applied to a line headed by its entry.
UniProt P11473: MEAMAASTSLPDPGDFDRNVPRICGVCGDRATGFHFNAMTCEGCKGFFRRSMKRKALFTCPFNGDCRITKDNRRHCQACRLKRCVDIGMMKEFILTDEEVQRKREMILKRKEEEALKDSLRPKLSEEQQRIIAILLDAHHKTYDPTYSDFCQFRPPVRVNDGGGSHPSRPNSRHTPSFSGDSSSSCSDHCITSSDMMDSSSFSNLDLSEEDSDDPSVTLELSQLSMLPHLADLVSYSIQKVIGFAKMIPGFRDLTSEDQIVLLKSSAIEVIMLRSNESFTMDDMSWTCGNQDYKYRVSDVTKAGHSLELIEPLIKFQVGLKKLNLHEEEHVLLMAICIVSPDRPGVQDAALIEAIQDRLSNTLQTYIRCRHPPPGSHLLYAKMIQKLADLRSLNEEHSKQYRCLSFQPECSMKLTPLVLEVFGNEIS

The compounds below were run against Vitamin D3 receptor (Homo sapiens) (UniProt P11473) (assay: Inhibitors of the vitamin D receptor (VDR): qHTS). Settings: VDR-SRC2-3 peptide fluorescence polarization, 2 h; max response, negative = inhibition: active compounds read low.
Procedure, shortened: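 Fluorescence polarization assay measuring small-molecule disruption of VDR binding to the coregulator peptide SRC2-3. Compounds were pin-transferred (23 nl) into the reagent mix and incubated 2 h at room temperature before reading.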
% is scaled to controls: 0 for no effect and ±100 for the full control effect; potency is read from the fitted curve at half-maximal effect.

Max response, negative = inhibition, inactive:
CCOC(=O)C(NC(=O)c1cccc(Cl)c1)(Nc1sc2c(c1C(N)=O)CCC2)C(F)(F)F (configuration not stated) -17.5%
C/C(=N/NC(=O)c1ccccn1)c1c[nH]c2ccccc12 15.9%
O=C(Nc1ccc2c(c1)OCO2)C1CC(=O)N(c2ccc3c(c2)OCCO3)C1 (configuration not stated) -9.74%
CC1=NNC(=O)C1CCC(=O)N/N=C/C(Br)=C/c1ccccc1 (configuration not stated) -13.1%
C=CCOC(=O)N[C@H](/C(C(=O)OC)=C(\C)NCc1ccccc1)c1cccc(C(F)(F)F)c1 2.33%
Cn1c(SCc2cccc3ccccc23)nnc1-c1ccco1 4.84%
Cc1c(Cl)cccc1N1CC(C)(C)C1=O -14.4%
O=C(N/N=C/c1cccc([N+](=O)[O-])c1)c1cnccn1 13.8%
Cc1[nH]c2c(Cl)cccc2c(=O)c1CN1CCCCCC1 23.9%

Potency, inconclusive:
O=C(NC(=S)NNC(=O)c1ccccc1[N+](=O)[O-])c1ccccc1 89.1 µM [inhibitor, single point]
O=C1C=C(c2ccc(-c3ccccc3)cc2)C[C@@H](c2ccc(F)cc2)C1 39.8 µM [inhibitor, partial curve, poor fit]
CC(C)=CCC1=C(O)[C@](O)(CC=C(C)C)C(=O)C(C(=O)CC(C)C)=C1O 89.1 µM [inhibitor, single point]
O=C(COC(=O)c1cnccn1)c1ccc([N+](=O)[O-])cc1 20 µM [inhibitor, full curve, poor fit]
CC(=O)Nc1ccc(S(=O)(=O)N(C)CC(=O)OCC(=O)N(C)C2CCS(=O)(=O)C2)cc1 (configuration not stated) 89.1 µM [inhibitor, single point]
O=C(Nc1sc2c(c1C(=O)O)CCCCC2)c1ccccc1F 89.1 µM [inhibitor, single point]
COc1ccc(CCN(C)Cc2c(O)ccc3ccccc23)cc1OC 11.2 µM [inhibitor, partial curve, poor fit]
CC(C)(C)c1ccc(OCCn2c(CCNC(=O)C3CCCCC3)nc3ccccc32)cc1 4.47 µM [inhibitor, partial curve, poor fit]
COc1ccc(NS(=O)(=O)c2ccc(NC(C)=O)cc2)c(OC)c1 89.1 µM [inhibitor, single point]
Cc1cc(C)n2c(SCC(=O)NCc3ccc4c(c3)OCO4)nnc2n1 100 µM [inhibitor, partial curve, poor fit]
CCCCOc1ccccc1C1NC(=O)CCC1[N+](=O)[O-] (configuration not stated) 89.1 µM [inhibitor, partial curve, poor fit]
O=C(Nc1ccc(-c2nnc3n2CCCCC3)cc1)c1ccco1 22.4 µM [inhibitor, partial curve, poor fit]
c1ccc2sc(SN3CCOCC3)nc2c1 79.4 µM [inhibitor, partial curve, poor fit] and 50.1 µM [inhibitor, partial curve]
COC(=O)c1ccc(C2C3=C(Nc4nnnn42)c2ccccc2OC3)cc1 (configuration not stated) 89.1 µM [inhibitor, single point]
Cn1nc2c(c1C(=O)O)CCCC2 22.4 µM [inhibitor, partial curve, poor fit]
COC(C/C=C\[C@@H](O)[C@H](C)OCc1ccccc1)OC 100 µM [inhibitor, single point]
O=C(c1cccc(F)c1)N1CCC2(CCCN(c3ccccc3)C2)CC1 70.8 µM [inhibitor, partial curve]
N#Cc1cccc(-c2cc(-n3ccnc3)ncn2)c1 79.4 µM [inhibitor, single point]
Fc1ccc(-c2csc3ncnc(Cl)c23)cc1 56.2 µM [inhibitor, partial curve, poor fit]
O=C(CCN1C(=O)C2C3CC(C(Br)C3Br)C2C1=O)OCC(=O)c1ccccc1 (configuration not stated) 89.1 µM [inhibitor, single point]
COc1ccc(NC(=O)[C@@H]2CCCN2C(=O)c2cccs2)cc1S(=O)(=O)N1CCCCC1 89.1 µM [inhibitor, single point]
CN(C)/C=N/C(=S)Nc1ccc(Cl)c(Cl)c1 56.2 µM [inhibitor, partial curve, poor fit]
CC[C@@]1(c2cccc(C)c2)C(=O)N(C(=O)OC)N1C(=O)OC 63.1 µM [inhibitor, single point]

Three structures from above, arranged by length of the SMILES, largest number first.
Potency, inconclusive:
CC(C)(C)c1ccc(OCCn2c(CCNC(=O)C3CCCCC3)nc3ccccc32)cc1 4.47 µM [inhibitor, partial curve, poor fit]
O=C1C=C(c2ccc(-c3ccccc3)cc2)C[C@@H](c2ccc(F)cc2)C1 39.8 µM [inhibitor, partial curve, poor fit]
O=C(c1cccc(F)c1)N1CCC2(CCCN(c3ccccc3)C2)CC1 70.8 µM [inhibitor, partial curve]

Following part:

Potency, active:
Cc1[nH]n(-c2ccccc2)c(=S)c1C=Nc1ccc([N+](=O)[O-])cc1 39.8 µM
COc1ccc(C(=O)/C=C/C(=O)N(CC(=O)NC2CCCCC2)Cc2ccccc2)c(O)c1 28.2 µM
COc1cc(N(C)C)ccc1C=c1c2ccccc2n2c1cc(-c1ccccc1)[n+]2C 79.4 µM
CC(=O)Nc1nc(-c2cccc3ccccc23)cs1 25.1 µM
CO[C@H]1/C=C/O[C@@]2(C)Oc3c(C)c(O)c4c(O)c(c5c(c4c3C2=O)NC2(CCN(CC(C)C)CC2)N=5)=NC(=O)/C(C)=C\C=C\[C@H](C)[C@H](O)[C@@H](C)[C@@H](O)[C@@H](C)[C@H](OC(C)=O)[C@@H]1C 39.8 µM
O=S(=O)(Cc1ccccc1)N=Nc1c(O)[nH]c2ccc(Br)cc12 79.4 µM
Cc1ccc(N2CSC3=C(C#N)C(c4cccs4)CC(=O)N3C2)cc1 (configuration not stated) 79.4 µM
O=C1C=C(O)c2ccccc2C1=O 17.8 µM and 8.91 µM
CCCC(=O)Nc1cc(S(=O)(=O)N2CCOCC2)ccc1N1CCCCC1 89.1 µM
BrC(=C\c1ccccc1)/C=N/N1CCN(c2ccccc2)CC1 79.4 µM
